# Source: article PMC6553528, “An Interaction Network of the Human SEPT9 Established by Quantitative Mass Spectrometry” (G3: Genes|Genomes|Genetics, 2019)
# Protein sequences, listed by entry. Tags and fused reporters are not part of them. Lines headed by an entry give the natural chain unless they say otherwise; changes in a name come on top. Residues count along the entry.
# UniProt P22105, residues 24-4244: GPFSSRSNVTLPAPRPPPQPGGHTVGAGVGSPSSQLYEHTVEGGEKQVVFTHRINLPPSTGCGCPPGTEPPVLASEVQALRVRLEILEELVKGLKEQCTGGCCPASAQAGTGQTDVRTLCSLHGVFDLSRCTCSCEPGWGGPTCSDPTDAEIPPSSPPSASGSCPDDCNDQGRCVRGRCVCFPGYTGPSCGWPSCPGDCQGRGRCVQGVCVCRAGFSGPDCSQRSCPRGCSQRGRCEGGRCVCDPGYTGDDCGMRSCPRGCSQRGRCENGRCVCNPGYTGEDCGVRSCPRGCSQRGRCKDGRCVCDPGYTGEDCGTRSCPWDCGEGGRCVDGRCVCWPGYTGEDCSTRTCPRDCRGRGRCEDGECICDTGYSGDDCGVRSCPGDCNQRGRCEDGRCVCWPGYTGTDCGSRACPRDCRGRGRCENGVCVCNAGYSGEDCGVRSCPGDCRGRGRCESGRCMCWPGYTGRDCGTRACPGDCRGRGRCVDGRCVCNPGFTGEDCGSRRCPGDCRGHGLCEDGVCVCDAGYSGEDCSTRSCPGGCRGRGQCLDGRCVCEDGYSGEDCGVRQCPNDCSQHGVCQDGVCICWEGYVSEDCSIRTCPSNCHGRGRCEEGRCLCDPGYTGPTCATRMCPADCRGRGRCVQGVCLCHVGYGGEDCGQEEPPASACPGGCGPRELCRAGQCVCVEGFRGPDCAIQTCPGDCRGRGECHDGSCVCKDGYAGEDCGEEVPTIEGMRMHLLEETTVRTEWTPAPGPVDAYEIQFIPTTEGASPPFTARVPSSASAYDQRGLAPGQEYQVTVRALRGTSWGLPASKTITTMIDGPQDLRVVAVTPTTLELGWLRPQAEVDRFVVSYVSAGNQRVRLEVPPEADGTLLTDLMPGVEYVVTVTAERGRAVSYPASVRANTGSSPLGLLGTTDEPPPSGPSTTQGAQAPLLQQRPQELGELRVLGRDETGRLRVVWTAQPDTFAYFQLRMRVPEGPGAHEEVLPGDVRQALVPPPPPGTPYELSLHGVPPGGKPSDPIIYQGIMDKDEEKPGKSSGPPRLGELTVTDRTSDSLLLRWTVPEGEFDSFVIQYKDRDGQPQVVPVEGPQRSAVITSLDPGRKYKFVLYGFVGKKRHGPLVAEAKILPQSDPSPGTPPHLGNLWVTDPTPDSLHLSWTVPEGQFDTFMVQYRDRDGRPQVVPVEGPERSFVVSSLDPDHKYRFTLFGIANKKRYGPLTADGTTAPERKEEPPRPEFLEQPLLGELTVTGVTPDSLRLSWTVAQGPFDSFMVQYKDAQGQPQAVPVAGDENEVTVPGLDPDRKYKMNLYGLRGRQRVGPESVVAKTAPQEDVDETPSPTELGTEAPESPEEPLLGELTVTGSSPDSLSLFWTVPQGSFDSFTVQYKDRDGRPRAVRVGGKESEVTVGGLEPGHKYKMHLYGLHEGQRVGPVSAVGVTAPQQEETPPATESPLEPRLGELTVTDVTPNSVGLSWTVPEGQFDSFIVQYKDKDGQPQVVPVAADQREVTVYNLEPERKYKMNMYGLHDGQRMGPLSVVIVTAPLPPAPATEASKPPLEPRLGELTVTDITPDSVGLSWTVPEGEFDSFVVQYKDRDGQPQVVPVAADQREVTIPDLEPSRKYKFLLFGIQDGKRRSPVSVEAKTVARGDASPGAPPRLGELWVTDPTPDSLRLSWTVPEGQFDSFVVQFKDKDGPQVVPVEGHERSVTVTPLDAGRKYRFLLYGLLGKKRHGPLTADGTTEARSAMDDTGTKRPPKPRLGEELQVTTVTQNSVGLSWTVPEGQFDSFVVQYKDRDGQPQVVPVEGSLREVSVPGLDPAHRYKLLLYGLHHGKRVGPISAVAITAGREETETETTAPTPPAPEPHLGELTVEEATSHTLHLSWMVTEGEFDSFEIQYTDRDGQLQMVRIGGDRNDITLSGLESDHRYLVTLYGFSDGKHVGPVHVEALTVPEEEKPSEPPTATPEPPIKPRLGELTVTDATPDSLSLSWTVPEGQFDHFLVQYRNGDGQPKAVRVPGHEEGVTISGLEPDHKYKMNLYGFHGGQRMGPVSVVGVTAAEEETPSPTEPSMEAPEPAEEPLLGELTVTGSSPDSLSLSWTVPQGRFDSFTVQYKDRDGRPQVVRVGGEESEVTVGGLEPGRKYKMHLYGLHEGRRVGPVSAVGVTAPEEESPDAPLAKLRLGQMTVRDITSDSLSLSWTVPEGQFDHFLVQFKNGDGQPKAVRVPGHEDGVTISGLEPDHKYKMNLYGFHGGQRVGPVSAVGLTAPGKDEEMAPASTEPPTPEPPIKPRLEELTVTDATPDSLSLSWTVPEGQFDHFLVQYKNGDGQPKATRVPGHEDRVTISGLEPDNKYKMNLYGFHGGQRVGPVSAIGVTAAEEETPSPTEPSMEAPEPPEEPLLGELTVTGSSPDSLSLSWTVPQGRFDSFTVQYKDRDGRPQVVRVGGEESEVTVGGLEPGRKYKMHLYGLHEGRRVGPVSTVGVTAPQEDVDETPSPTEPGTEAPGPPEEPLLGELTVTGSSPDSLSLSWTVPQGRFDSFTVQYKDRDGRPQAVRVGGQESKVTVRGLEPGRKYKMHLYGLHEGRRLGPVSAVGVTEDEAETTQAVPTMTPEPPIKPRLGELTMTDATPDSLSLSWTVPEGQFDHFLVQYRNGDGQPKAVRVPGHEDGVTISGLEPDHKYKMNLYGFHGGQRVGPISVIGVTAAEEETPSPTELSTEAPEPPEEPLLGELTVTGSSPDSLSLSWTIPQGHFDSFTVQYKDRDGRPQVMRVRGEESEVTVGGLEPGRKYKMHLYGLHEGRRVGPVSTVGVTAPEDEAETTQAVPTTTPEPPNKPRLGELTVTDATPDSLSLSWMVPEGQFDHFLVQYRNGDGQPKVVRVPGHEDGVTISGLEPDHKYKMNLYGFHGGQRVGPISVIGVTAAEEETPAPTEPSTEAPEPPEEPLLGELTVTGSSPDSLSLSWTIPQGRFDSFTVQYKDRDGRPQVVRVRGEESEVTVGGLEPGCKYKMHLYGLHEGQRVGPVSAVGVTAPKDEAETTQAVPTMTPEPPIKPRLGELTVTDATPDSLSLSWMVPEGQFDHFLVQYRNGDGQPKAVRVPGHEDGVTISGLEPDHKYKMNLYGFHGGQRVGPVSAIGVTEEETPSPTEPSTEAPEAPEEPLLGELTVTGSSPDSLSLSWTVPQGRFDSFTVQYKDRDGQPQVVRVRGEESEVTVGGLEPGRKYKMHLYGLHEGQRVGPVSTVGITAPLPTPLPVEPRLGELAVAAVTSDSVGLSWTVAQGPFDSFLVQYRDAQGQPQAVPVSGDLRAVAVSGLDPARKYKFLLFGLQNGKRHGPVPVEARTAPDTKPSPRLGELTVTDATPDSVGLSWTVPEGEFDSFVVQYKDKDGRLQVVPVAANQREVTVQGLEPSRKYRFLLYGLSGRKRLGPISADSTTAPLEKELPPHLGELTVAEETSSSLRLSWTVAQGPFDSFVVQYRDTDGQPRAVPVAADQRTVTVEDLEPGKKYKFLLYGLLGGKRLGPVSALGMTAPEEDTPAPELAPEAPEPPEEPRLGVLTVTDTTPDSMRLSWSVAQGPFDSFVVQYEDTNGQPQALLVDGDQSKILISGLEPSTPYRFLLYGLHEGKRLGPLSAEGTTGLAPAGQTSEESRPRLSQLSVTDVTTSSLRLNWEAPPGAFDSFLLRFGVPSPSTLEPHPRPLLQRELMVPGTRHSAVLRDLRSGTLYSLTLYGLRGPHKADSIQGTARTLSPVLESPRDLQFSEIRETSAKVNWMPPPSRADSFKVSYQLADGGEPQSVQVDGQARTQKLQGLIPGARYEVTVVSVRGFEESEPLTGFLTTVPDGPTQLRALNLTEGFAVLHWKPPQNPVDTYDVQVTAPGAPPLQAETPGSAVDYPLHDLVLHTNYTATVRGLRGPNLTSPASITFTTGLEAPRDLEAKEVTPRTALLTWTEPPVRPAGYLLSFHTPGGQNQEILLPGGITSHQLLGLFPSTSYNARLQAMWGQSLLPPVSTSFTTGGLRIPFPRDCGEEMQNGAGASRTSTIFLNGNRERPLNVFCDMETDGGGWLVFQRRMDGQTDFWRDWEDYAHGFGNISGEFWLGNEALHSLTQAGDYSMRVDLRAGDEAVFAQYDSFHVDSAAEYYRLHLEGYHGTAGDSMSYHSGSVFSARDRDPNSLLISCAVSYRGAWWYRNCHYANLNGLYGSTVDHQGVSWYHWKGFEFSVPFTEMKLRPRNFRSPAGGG
# UniProt P13987: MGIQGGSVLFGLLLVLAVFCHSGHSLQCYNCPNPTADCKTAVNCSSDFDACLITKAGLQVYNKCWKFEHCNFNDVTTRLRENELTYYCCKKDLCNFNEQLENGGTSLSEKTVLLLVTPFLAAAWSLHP
# UniProt Q9BX40: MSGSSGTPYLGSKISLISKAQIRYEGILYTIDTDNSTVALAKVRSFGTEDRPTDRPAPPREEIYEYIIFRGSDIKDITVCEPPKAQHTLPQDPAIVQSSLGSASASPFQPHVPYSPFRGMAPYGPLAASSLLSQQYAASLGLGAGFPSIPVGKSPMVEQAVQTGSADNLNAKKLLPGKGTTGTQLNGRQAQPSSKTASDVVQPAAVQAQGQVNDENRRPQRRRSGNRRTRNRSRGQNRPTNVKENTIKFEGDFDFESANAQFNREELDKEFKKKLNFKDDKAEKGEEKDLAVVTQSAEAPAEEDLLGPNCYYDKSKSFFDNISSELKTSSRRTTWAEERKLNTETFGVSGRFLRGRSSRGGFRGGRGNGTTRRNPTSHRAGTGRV
# UniProt O43795: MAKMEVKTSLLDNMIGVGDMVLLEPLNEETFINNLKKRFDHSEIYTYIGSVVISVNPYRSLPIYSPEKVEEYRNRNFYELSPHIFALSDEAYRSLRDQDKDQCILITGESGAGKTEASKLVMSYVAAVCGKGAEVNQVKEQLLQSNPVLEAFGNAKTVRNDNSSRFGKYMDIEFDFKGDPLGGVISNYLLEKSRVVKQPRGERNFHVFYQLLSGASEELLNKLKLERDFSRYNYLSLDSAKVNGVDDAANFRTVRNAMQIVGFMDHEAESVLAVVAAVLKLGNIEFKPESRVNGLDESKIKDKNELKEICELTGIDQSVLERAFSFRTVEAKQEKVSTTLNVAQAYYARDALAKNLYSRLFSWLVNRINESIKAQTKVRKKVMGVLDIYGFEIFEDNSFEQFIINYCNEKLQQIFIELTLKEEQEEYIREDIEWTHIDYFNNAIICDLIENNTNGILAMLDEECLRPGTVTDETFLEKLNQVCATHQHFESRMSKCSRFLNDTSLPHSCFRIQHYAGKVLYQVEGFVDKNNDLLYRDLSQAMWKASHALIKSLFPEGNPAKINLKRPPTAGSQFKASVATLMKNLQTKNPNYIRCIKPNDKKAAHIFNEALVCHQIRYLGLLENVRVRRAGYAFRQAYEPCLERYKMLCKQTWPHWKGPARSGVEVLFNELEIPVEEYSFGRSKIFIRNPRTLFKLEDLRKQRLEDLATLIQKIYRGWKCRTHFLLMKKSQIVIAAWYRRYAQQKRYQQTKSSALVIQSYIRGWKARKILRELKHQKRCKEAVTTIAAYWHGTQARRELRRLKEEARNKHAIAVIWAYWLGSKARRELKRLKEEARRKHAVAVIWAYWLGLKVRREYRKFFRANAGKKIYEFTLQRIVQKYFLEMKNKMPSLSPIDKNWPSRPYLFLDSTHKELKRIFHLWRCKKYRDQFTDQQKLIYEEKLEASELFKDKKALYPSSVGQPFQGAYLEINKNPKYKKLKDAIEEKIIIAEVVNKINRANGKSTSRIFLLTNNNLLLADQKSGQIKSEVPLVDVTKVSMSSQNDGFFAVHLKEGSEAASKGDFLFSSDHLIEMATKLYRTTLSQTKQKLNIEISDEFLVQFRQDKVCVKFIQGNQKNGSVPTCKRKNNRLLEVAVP
# UniProt P05362, residues 28-532: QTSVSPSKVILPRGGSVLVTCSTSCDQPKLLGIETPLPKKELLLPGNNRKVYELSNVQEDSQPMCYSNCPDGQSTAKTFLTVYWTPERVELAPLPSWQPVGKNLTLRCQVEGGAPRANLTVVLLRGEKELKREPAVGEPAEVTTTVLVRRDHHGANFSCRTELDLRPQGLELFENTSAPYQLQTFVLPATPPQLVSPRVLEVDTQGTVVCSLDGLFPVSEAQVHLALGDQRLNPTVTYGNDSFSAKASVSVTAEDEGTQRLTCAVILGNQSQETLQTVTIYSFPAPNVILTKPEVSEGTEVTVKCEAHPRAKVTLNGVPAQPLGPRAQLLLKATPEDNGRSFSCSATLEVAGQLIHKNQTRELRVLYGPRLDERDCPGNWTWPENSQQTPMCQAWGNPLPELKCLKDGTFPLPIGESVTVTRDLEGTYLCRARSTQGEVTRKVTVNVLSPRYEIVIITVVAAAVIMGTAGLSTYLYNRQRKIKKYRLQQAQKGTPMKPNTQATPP
# UniProt O00161: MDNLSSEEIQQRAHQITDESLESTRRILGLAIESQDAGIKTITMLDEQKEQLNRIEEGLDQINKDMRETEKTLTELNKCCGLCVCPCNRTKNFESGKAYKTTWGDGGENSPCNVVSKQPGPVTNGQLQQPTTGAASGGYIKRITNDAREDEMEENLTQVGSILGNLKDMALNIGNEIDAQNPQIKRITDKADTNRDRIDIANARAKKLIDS
# T1: TAP-SEPT9_i1 (human) (UniProt Q9UHD8)
# T1 sequence: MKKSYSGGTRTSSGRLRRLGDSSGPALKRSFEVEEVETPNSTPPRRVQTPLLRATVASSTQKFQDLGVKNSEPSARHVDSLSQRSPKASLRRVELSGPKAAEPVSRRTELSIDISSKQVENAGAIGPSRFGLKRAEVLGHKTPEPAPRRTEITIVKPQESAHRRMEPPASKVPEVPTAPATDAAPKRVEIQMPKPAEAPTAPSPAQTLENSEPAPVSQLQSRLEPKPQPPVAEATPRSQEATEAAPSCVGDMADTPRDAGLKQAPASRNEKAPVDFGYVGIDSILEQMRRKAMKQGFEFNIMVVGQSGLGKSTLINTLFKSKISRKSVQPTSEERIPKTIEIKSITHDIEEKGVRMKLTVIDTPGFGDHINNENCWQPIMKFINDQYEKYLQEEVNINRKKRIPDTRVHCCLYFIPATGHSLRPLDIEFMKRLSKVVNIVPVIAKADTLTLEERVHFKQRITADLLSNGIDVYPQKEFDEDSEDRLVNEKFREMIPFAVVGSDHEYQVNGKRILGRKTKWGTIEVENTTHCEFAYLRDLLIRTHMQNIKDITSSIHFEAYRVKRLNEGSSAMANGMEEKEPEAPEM
# B1: Lipase member I (protein, UniProt Q6XZB0 16-460)
# chain: DNKRPCLEFSQLSVKDSFRDLFIPRIETILMMYTRNNLNCAEPLFEQNNSLNVNFNTQKKTVWLIHGYRPVGSIPLWLQNFVRILLNEEDMNVIVVDWSRGATTFIYNRAVKNTRKVAVSLSVHIKNLLKHGASLDNFHFIGVSLGAHISGFVGKIFHGQLGRITGLDPAGPRFSRKPPYSRLDYTDAKFVDVIHSDSNGLGIQEPLGHIDFYPNGGNKQPGCPKSIFSGIQFIKCNHQRAVHLFMASLETNCNFISFPCRSYKDYKTSLCVDCDCFKEKSCPRLGYQAKLFKGVLKERMEGRPLRTTVFLDTSGTYPFCTYYFVLSIIVPDKTMMDGSFSFKLLNQLGMIEEPRLYEKNKPFYKLQEVKILAQFYNDFVNISSIGLTYFQSSNLQCSTCTYKIQSLMLKSLTYPERPPLCRYNIVLKDREEVFLNPNTCTPKNT
# B2: Ras GTPase-activating protein 2 (protein, UniProt Q15283 1-850)
# chain: MAAAAPAAAAASSEAPAASATAEPEAGDQDSREVRVLQSLRGKICEAKNLLPYLGPHKMRDCFCTINLDQEEVYRTQVVEKSLSPFFSEEFYFEIPRTFQYLSFYVYDKNVLQRDLRIGKVAIKKEDLCNHSGKETWFSLQPVDSNSEVQGKVHLELKLNELITENGTVCQQLVVHIKACHGLPLINGQSCDPYATVSLVGPSRNDQKKTKVKKKTSNPQFNEIFYFEVTRSSSYTRKSQFQVEEEDIEKLEIRIDLWNNGNLVQDVFLGEIKVPVNVLRTDSSHQAWYLLQPRDNGNKSSKTDDLGSLRLNICYTEDYVLPSEYYGPLKTLLLKSPDVQPISASAAYILSEICRDKNDAVLPLVRLLLHHDKLVPFATAVAELDLKDTQDANTIFRGNSLATRCLDEMMKIVGGHYLKVTLKPILDEICDSSKSCEIDPIKLKEGDNVENNKENLRYYVDKLFNTIVKSSMSCPTVMCDIFYSLRQMATQRFPNDPHVQYSAVSSFVFLRFFAVAVVSPHTFHLRPHHPDAQTIRTLTLISKTIQTLGSWGSLSKSKSSFKETFMCEFFKMFQEEGYIIAVKKFLDEISSTETKESSGTSEPVHLKEGEMYKRAQGRTRIGKKNFKKRWFCLTSRELTYHKQPGSKDAIYTIPVKNILAVEKLEESSFNKKNMFQVIHTEKPLYVQANNCVEANEWIDVLCRVSRCNQNRLSFYHPSVYLNGNWLCCQETGENTLGCKPCTAGVPADIQIDIDEDRETERIYSLFTLSLLKLQKMEEACGTIAVYQGPQKEPDDYSNFVIEDSVTTFKTIQQIKSIIEKLDEPHEKYRKKRSSSAKYGSKENPIVGKAS
# B3: RNA-binding protein 27 (protein, UniProt Q9P2N5 1-1060)
# chain: MLIEDVDALKSWLAKLLEPICDADPSALANYVVALVKKDKPEKELKAFCADQLDVFLQKETSGFVDKLFESLYTKNYLPLLEPVKPEPKPLVQEKEEIKEEVFQEPAEEERDGRKKKYPSPQKTRSESSERRTREKKREDGKWRDYDRYYERNELYREKYDWRRGRSKSRSKSRGLSRSRSRSRGRSKDRDPNRNVEHRERSKFKSERNDLESSYVPVSAPPPNSSEQYSSGAQSIPSTVTVIAPAHHSENTTESWSNYYNNHSSSNSFGRNLPPKRRCRDYDERGFCVLGDLCQFDHGNDPLVVDEVALPSMIPFPPPPPGLPPPPPPGMLMPPMPGPGPGPGPGPGPGPGPGPGPGHSMRLPVPQGHGQPPPSVVLPIPRPPITQSSLINSRDQPGTSAVPNLASVGTRLPPPLPQNLLYTVSERQPMYSREHGAAASERLQLGTPPPLLAARLVPPRNLMGSSIGYHTSVSSPTPLVPDTYEPDGYNPEAPSITSSGRSQYRQFFSRTQTQRPNLIGLTSGDMDVNPRAANIVIQTEPPVPVSINSNITRVVLEPDSRKRAMSGLEGPLTKKPWLGKQGNNNQNKPGFLRKNQYTNTKLEVKKIPQELNNITKLNEHFSKFGTIVNIQVAFKGDPEAALIQYLTNEEARKAISSTEAVLNNRFIRVLWHRENNEQPTLQSSAQLLLQQQQTLSHLSQQHHHLPQHLHQQQVLVAQSAPSTVHGGIQKMMSKPQTSGAYVLNKVPVKHRLGHAGGNQSDASHLLNQSGGAGEDCQIFSTPGHPKMIYSSSNLKTPSKLCSGSKSHDVQEVLKKKQEAMKLQQDMRKKRQEVLEKQIECQKMLISKLEKNKNMKPEERANIMKTLKELGEKISQLKDELKTSSAVSTPSKVKTKTEAQKELLDTELDLHKRLSSGEDTTELRKKLSQLQVEAARLGILPVGRGKTMSSQGRGRGRGRGGRGRGSLNHMVVDHRPKALTVGGFIEEEKEDLLQHFSTANQGPKFKDRRLQISWHKPKVPSISTETEEEEVKEEETETSDLFLPDDDDEDEDEYESRSWRR
# B4: Ras-related protein R-Ras (protein, UniProt P10301 1-218)
# chain: MSSGAASGTGRGRPRGGGPGPGDPPPSETHKLVVVGGGGVGKSALTIQFIQSYFVSDYDPTIEDSYTKICSVDGIPARLDILDTAGQEEFGAMREQYMRAGHGFLLVFAINDRQSFNEVGKLFTQILRVKDRDDFPVVLVGNKADLESQRQVPRSEASAFGASHHVAYFEASAKLRLNVDEAFEQLVRAVRKYQEQELPPSPPSAPRKKGGGCPCVLL
# B5: Septin-8 (protein, UniProt Q92599 1-483)
# chain: MAATDLERFSNAEPEPRSLSLGGHVGFDSLPDQLVSKSVTQGFSFNILCVGETGIGKSTLMNTLFNTTFETEEASHHEACVRLRPQTYDLQESNVQLKLTIVDAVGFGDQINKDESYRPIVDYIDAQFENYLQEELKIRRSLFDYHDTRIHVCLYFITPTGHSLKSLDLVTMKKLDSKVNIIPIIAKADTISKSELHKFKIKIMGELVSNGVQIYQFPTDDEAVAEINAVMNAHLPFAVVGSTEEVKVGNKLVRARQYPWGVVQVENENHCDFVKLREMLIRVNMEDLREQTHSRHYELYRRCKLEEMGFQDSDGDSQPFSLQETYEAKRKEFLSELQRKEEEMRQMFVNKVKETELELKEKERELHEKFEHLKRVHQEEKRKVEEKRRELEEETNAFNRRKAAVEALQSQALHATSQQPLRKDKDKKNRSDIGAHQPGMSLSSSKVMMTKASVEPLNCSSWWPAIQCCSCLVRDATWREGFL
# B6: Phostensin (protein, UniProt Q6NYC8 1-613)
# chain: MATIPDWKLQLLARRRQEEASVRGREKAERERLSQMPAWKRGLLERRRAKLGLSPGEPSPVLGTVEAGPPDPDESAVLLEAIGPVHQNRFIRQERQQQQQQQQRSEELLAERKPGPLEARERRPSPGEMRDQSPKGRESREERLSPRETRERRLGIGGAQELSLRPLEARDWRQSPGEVGDRSSRLSEAWKWRLSPGETPERSLRLAESREQSPRRKEVESRLSPGESAYQKLGLTEAHKWRPDSRESQEQSLVQLEATEWRLRSGEERQDYSEECGRKEEWPVPGVAPKETAELSETLTREAQGNSSAGVEAAEQRPVEDGERGMKPTEGWKWTLNSGKAREWTPRDIEAQTQKPEPPESAEKLLESPGVEAGEGEAEKEEAGAQGRPLRALQNCCSVPSPLPPEDAGTGGLRQQEEEAVELQPPPPAPLSPPPPAPTAPQPPGDPLMSRLFYGVKAGPGVGAPRRSGHTFTVNPRRSVPPATPATPTSPATVDAAVPGAGKKRYPTAEEILVLGGYLRLSRSCLAKGSPERHHKQLKISFSETALETTYQYPSESSVLEELGPEPEVPSAPNPPAAQPDDEEDEEELLLLQPELQGGLRTKALIVDESCRR
# Target: T1, TAP-SEPT9_i1 (human)
# Assay: affinity purification with mass spectrometry; TAP-SEPT9 captured on human IgG-Sepharose from the cytoplasmic lysate of SILAC-labelled 1306 fibroblasts (overnight, 4 degrees); mixing after purification with the eluate of unlabelled GFP-SEPT9 cells as control; three replicates; hits by LOG2(H/L)>2 and Significance B
row,binding,Molecule
1,binds,Zinc finger protein 106 (from UniProt Q9H2Y7 1-1883)
2,binds,Stimulator of interferon genes protein (from UniProt Q86WV6 1-379)
3,binds,Alpha-actinin-4 (from UniProt O43707 1-911)
4,binds,Exocyst complex component 8 (from UniProt Q8IYI6 1-725)
5,binds,Tenascin-X (from UniProt P22105 24-4244)
6,binds,Little elongation complex subunit 1 (from UniProt Q9Y2F5 1-2266)
7,binds,Fanconi anemia group I protein (from UniProt Q9NVI1 1-1328)
8,binds,Guanine nucleotide-binding protein G(I)/G(S)/G(O) subunit gamma-12 (from UniProt Q9UBI6 1-72)
9,binds,CD109 antigen (from UniProt Q6YHK3 22-1420)
10,binds,Aminopeptidase N (from UniProt P15144 1-967)
11,binds,Protein kinase C alpha type (from UniProt P17252 1-672)
12,binds,CD59 glycoprotein (from UniProt P13987)
13,binds,Copine-2 (from UniProt Q96FN4 1-548)
14,binds,Unconventional myosin-VI (from UniProt Q9UM54 1-1294)
15,binds,Protein LSM14 homolog B (from UniProt Q9BX40 1-385)
16,binds,Myosin light chain kinase (from UniProt Q15746 1-1914)

row,binding,Molecule
1,binds,Unconventional myosin-Ib (from UniProt O43795 1-1136)
2,binds,Caveolin-1;Caveolin (from UniProt Q03135 1-178)
3,binds,Guanine nucleotide-binding protein G(k) subunit alpha (from UniProt P08754 1-354)
4,binds,Intercellular adhesion molecule 1 (from UniProt P05362 28-532)
5,binds,LIM domain and actin-binding protein 1 (from UniProt Q9UHB6 1-759)
6,binds,Zinc finger protein 185 (from UniProt O15231 1-689)
7,binds,Synaptosomal-associated protein 23 (from UniProt O00161 1-211)
8,binds,Myosin-10 (from UniProt P35580 1-1976)
9,binds,Protein LSM14 homolog A (from UniProt Q8ND56 1-463)
10,binds,B1
11,binds,B2
12,binds,B3
13,binds,B4
14,binds,B5
15,binds,B6

# These are yes or no findings as the source states them, for the method shown. In cells and extracts the contact can be indirect. A yes stands for co-enrichment or nearness to the bait. Other partners may have been found.
